# Results reported in US6391305B1, “Conjugates useful in the treatment of prostate cancer” (priority 1999, dated 2002).
# Not every detail of the peptide structures is certain; ends, links or a residue may be inferred. Non-standard residues stand in square brackets, D forms with d. Residues, ends and D or L forms follow the SMILES beside them. *: point of attachment. Doxorubicin(3'-N) = COc1cccc2c1C(=O)c1c(O)c3c(c(O)c1C2=O)C[C@@](O)(C(=O)CO)C[C@@H]3O[C@H]1C[C@H](N*)[C@H](O)[C@H](C)O1; Decanoyl(3,6,9-trioxa) = COCCOCCOCC(=O)*; Glyceroyl(2R) = O=C([C@H](O)CO)*; hArg = N=C(N)NCCCC[C@H](N)C(=O)O; 3Pal = N[C@@H](Cc1cccnc1)C(=O)O; Chg = N[C@H](C(=O)O)C1CCCCC1; Glycolyl = O=C(CO)*
# System: DuPRO cells
# Experiment: In vitro cytotoxicity, Alamar Blue assay, DuPRO
# Format: cell-based
# Conditions: value in parentheses beside the LNCaP value, read-out: DuPRO cell kill EC 50
# Protocol: The cytotoxicities of the cleaveable oligopeptide-doxorubicin conjugates, prepared as described in Examples 3-6, against a line of cells which is known to be killed by unmodified doxorubicin was assessed with an Alamar Blue assay. Specifically, cell cultures of LNCap prostate tumor cells or DuPRO cells in 96 well plates was diluted with medium containing various concentrations of a given conjugate (final plate well volume of 200 μl ). The cells were incubated for 3 days at 37° C., 20 μl of Alamar Blue is added to the assay well. The cells were further incubated and the assay plates were read on a EL-310 ELISA reader at the dual wavelengths of 570 and 600 nm at 4 and 7 hours after addition of Alamar Blue. Relative percentage viability at the various concentration of conjugate tested was then calculated versus control (no conjugate) cultures. If no salt is indicated, the free conjugate was tested.
row,Compound,EC50
1,"COc1cccc2c1C(=O)c1c(O)c3c(c(O)c1C2=O)C[C@@](O)(C(=O)CO)C[C@@H]3O[C@H]1C[C@H](NC(=O)[C@H](CC(C)C)NC(=O)[C@H](CO)NC(=O)[C@H](CCC(N)=O)NC(=O)[C@@H](NC(=O)[C@H](CO)NC(=O)[C@H](C)NC(=O)[C@H](CCCCNC(=N)N)NC(=O)CO)C2CCCCC2)[C@H](O)[C@H](C)O1 [2-hydroxyacetyl-HomoRASChgQ-SL-DOX (3′), 2-hydroxyacetyl-hArgAlaSerChgGln-SerLeu-DOX (3′)] (Glycolyl-[hArg]AS[Chg]QSL-{Doxorubicin(3'-N)})",> 100 µM
2,"COc1cccc2c1C(=O)c1c(O)c3c(c(O)c1C2=O)C[C@@](O)(C(=O)CO)C[C@@H]3O[C@H]1C[C@H](NC(=O)[C@H](CC(C)C)NC(=O)[C@H](CO)NC(=O)[C@H](CCC(N)=O)NC(=O)[C@H](Cc2ccc(O)cc2)NC(=O)[C@H](CO)NC(=O)[C@H](CO)NC(=O)[C@H](CCCCNC(=N)N)NC(=O)CO)[C@H](O)[C@H](C)O1 [2-hydroxyacetyl-HomoRSSYQ-SL-DOX (3′), 2-hydroxyacetyl-hArgSerSerTyrGln-SerLeu-DOX (3′)] (Glycolyl-[hArg]SSYQSL-{Doxorubicin(3'-N)})",> 100 µM
3,"COc1cccc2c1C(=O)c1c(O)c3c(c(O)c1C2=O)C[C@@](O)(C(=O)CO)C[C@@H]3O[C@H]1C[C@H](NC(=O)[C@H](CC(C)C)NC(=O)[C@H](CO)NC(=O)[C@H](CO)NC(=O)[C@H](CO)NC(=O)[C@H](CCC(N)=O)NC(=O)[C@H](Cc2ccc(O)cc2)NC(=O)[C@H](CO)NC(=O)CO)[C@H](O)[C@H](C)O1 [2-hydroxyacetyl-SYQ-SSSL-DOX (3′), 2-hydroxyacetyl-SerTyrGln-SerSerSerLeu-DOX (3′)] (Glycolyl-SYQSSSL-{Doxorubicin(3'-N)})",50 µM
4,"COc1cccc2c1C(=O)c1c(O)c3c(c(O)c1C2=O)C[C@@](O)(C(=O)CO)C[C@@H]3O[C@H]1C[C@H](NC(=O)[C@H](CC(C)C)NC(=O)[C@H](CO)NC(=O)[C@H](CCC(N)=O)NC(=O)[C@@H](NC(=O)[C@H](CO)NC(=O)[C@H](CO)NC(=O)[C@H](Cc2cccnc2)NC(=O)[C@H](O)CO)C2CCCCC2)[C@H](O)[C@H](C)O1 [(d)(2,3-dihydroxypropionyl)-3PAL-SerSerChgGln-SerLeu-DOX (3′)] ({Glyceroyl(2R)}-[3Pal]SS[Chg]QSL-{Doxorubicin(3'-N)})",> 100 µM
5,"COCCOCCOCC(=O)N[C@@H](CCCCNC(=N)N)C(=O)N[C@@H](Cc1ccc(O)cc1)C(=O)N[C@@H](CCC(N)=O)C(=O)N[C@@H](CO)C(=O)N[C@@H](CO)C(=O)N[C@@H](CO)C(=O)N[C@@H](CC(C)C)C(=O)N[C@H]1C[C@H](O[C@H]2C[C@](O)(C(=O)CO)Cc3c(O)c4c(c(O)c32)C(=O)c2c(OC)cccc2C4=O)O[C@@H](C)[C@H]1O [PEG(2)-HomoRYQ-SSSL-DOX (3′), PEG(2)-hArgTyrGln-SerSerSerLeu-DOX (3′)] ({Decanoyl(3,6,9-trioxa)}-[hArg]YQSSSL-{Doxorubicin(3'-N)})",> 100 µM
6,"COCCOCCOCC(=O)N[C@@H](CCCCN)C(=O)N[C@@H](Cc1ccc(O)cc1)C(=O)N[C@@H](CCC(N)=O)C(=O)N[C@@H](CO)C(=O)N[C@@H](CO)C(=O)N[C@@H](CO)C(=O)N[C@@H](CC(C)C)C(=O)N[C@H]1C[C@H](O[C@H]2C[C@](O)(C(=O)CO)Cc3c(O)c4c(c(O)c32)C(=O)c2c(OC)cccc2C4=O)O[C@@H](C)[C@H]1O [PEG(2)-KYQ-SSSL-DOX (3′), PEG(2)-LysTyrGln-SerSerSerLeu-DOX (3′)] ({Decanoyl(3,6,9-trioxa)}-KYQSSSL-{Doxorubicin(3'-N)})",> 100 µM
